# Values from PubChem BioAssay AID1224828 (NIAID, 2016).
# Purpose: 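Find genes required for NF-kappaB p65 moving into the nucleus after LPS in mouse macrophages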 (primary screen)
# Cell system: mouse RAW264.7 G9 macrophage reporter cells (GFP-p65, Tnf promoter-mCherry)
# Knock-down reagent: siRNA pool against mouse genes, 100 nM
# Duration: 2 days siRNA transfection, then 40 min LPS before fixation
# Challenge: LPS (Salmonella minnesota R595) at 10 ng/ml
# Read-out: 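Imaged p65 nuclear translocation ratio, normalised to the plate median, converted to robust z-scores and averaged across two replicates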
# Direction: p65 translocation robust z-score: higher = more nuclear NF-kappaB p65 after LPS than the plate median; nuclear/cytoplasmic p65 ratio: higher = more nuclear NF-kappaB p65
# Call rule: 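Called active when z exceeds 3.3 or falls under -1.56 (median of Tlr4 controls), giving activity score of at least 50; no calls for control wells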
# Calls: active = hit (p65 shift raised or lowered); inactive = no clear change
# The deposit covers about 17,000 reagents; shown is a random part of them. Of all reagents, 762 (4.5%) are marked active. 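Active calls include both raised and lowered p65 entry, mostly lowered; wells with fewer than 50 cells lack a z-score.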 The raw values are shown without normalisation. Reagent sequences are not shown.
The opening 3 records, ahead of the listing:
gene,PubChem SID,p65 translocation robust z-score,"nuclear/cytoplasmic p65 ratio, rep 1","nuclear/cytoplasmic p65 ratio, rep 2",low cell count flag,Call
Tuba3b,SID315469875,-1.32,1.39,1.26,enough cells to score,inactive
Serpinb13,SID315479554,0.9,1.59,1.77,enough cells to score,inactive
Tbc1d22b,SID315481768,0.34,1.49,1.55,enough cells to score,inactive

The list itself, from the first entry:
gene,PubChem SID,p65 translocation robust z-score,"nuclear/cytoplasmic p65 ratio, rep 1","nuclear/cytoplasmic p65 ratio, rep 2",low cell count flag,Call
Tuba3b,SID315469875,-1.32,1.39,1.26,enough cells to score,inactive
Serpinb13,SID315479554,0.9,1.59,1.77,enough cells to score,inactive
Tbc1d22b,SID315481768,0.34,1.49,1.55,enough cells to score,inactive
Wdr11,SID315477482,0.71,1.62,1.7,enough cells to score,inactive
Myg1,SID315472003,0.74,1.83,1.77,enough cells to score,inactive
Gask1b,SID315473597,-0.81,1.36,1.4,enough cells to score,inactive
Nfatc2ip,SID315468143,-1.69,1.48,1.36,enough cells to score,active
Cyp4a31,SID315480999,-2.19,1.41,1.2,enough cells to score,active
Slc7a5,SID315469313,-0.11,1.27,1.33,enough cells to score,inactive
Slc41a1,SID315476132,,1.19,1.07,fewer than 50 cells per well; well left out of scoring,inactive
Snx17,SID315480751,-0.03,1.36,1.27,enough cells to score,inactive
Ldaf1,SID315479107,-0.41,1.37,1.6,enough cells to score,inactive
Angpt1,SID315465345,-0.73,1.52,1.5,enough cells to score,inactive
Pop4,SID315472254,0.06,1.47,1.45,enough cells to score,inactive
Or8g18,SID315479936,,1.16,1.37,fewer than 50 cells per well; well left out of scoring,inactive
Sacs,SID315479422,-0.6,1.33,1.33,enough cells to score,inactive
Dclk1,SID315466274,-0.84,1.52,1.31,enough cells to score,inactive
B4galt4,SID315471492,-1.07,1.36,1.73,enough cells to score,inactive
Lcn6,SID315481985,-1.1,1.31,1.35,enough cells to score,inactive
Rps6kl1,SID315479393,-0.49,1.58,1.31,enough cells to score,inactive
Tuba8,SID315471109,-0.35,1.47,1.45,enough cells to score,inactive
Or4p8,SID315480422,0.43,1.82,1.56,enough cells to score,inactive
Eras,SID315481713,-0.87,1.39,1.42,enough cells to score,inactive
Tenm2,SID315470259,-1.84,1.44,1.26,enough cells to score,active
